Assay: general procedure: solution-phase peptide synthesis; 1-ethyl-3-(3-dimethylaminopropyl)carbodiimide hydrochloride / 1-hydroxybenzotria

Q: With “(4S)-N-Boc-4-amino-2,2-difluoro-3-hydroxy-5-(S-all-trans-farnesyl)-1-(L-Val-L-Ile-L-Met)pentanoic Amide” as the substance, how does the step yield (late stage modification step) read?
A: Its step yield is 40%.

Q: Which step yield (coupling step) does the source give for “(3S, 4S)-N-Boc-4-amino-3-hydroxy-5-(S-all-trans-farnesyl)-1-(methyl L-Val-L-Ile-L-Met) pentanoic Amide” here?
A: The step yield was 70%.

Q: Which step yield (coupling step) does the source give for “(4S)-N-Boc-4-amino-2 2-difluoro-3-hydroxy-5-(S-all-trans-farnesyl)-1-(methyl L-Val-L-Ile-L-Met)pentanoic Amide” here?
A: The step yield was 19%.
